This experiment has as its system Salmonella enterica serovar Typhimurium SL1344. In words: bacterial growth OD600 after 18 h with compound and polymyxin B; higher = more bacterial growth (less inhibition). As to conditions: 50 µM, Mueller-Hinton broth.

The other results are listed elsewhere or left out. Values are raw readings; no control value is given beside them.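 First-pass screen: polymyxin B was added at a level that permeabilizes the Salmonella outer membrane while sparing the inner membrane. DMSO wells, with and without polymyxin B, defined maximum growth. Because plates differed from one another, each plate's data were ranked separately and the compounds with the lowest OD600 were carried forward as hits.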

For `COc1ccccc1-c1ccnc(-n2ncc(C(=O)N3CCN(c4ccccc4OC)CC3)c2C)n1`, for the setting “polymyxin B 0.75 µg/mL”, the “bacterial growth OD600” value was 0.603.

In the case of `O=C(c1ccc2[nH]ccc2c1)N1CCCC(c2nc(-c3cccnc3)ncc2-c2ccccc2F)C1` (stereo not given), for the setting “polymyxin B 0.75 µg/mL”, the “bacterial growth OD600” value was 0.036.

Regarding `COCC1CCCCN1C(=O)c1coc(COc2ccc(F)cc2Cl)n1` (stereo not given), the “bacterial growth OD600” value (polymyxin B 1 µg/mL) amounted to 0.891.

In the case of `Cc1ccccc1C(CC(=O)N(C)Cc1ccncn1)c1ccccc1` (stereo not given), under “polymyxin B 0.75 µg/mL”, the “bacterial growth OD600” value came to 0.705.

Turning to `COCc1ccc(CN2CCC(n3nccc3NC(=O)C3CCCC3)CC2)o1`, the “bacterial growth OD600” value (polymyxin B 1 µg/mL) came to 0.968.

Take `CC(C)c1cc(CNC(=O)C2CCC(=O)N(CCCN3CCOCC3)C2)on1` (stereo not given): the “bacterial growth OD600” value (polymyxin B 1 µg/mL) is 0.985.

For the molecule `C=CCC(=O)NC1CCCc2c1cnn2-c1cccc(C)c1C` (stereo not given), the “bacterial growth OD600” value (polymyxin B 1 µg/mL) stood at 0.803.

With `CCOC(=O)C1(Cc2ccccc2C(F)(F)F)CCN(C2CCSCC2)CC1`, the “bacterial growth OD600” value (polymyxin B 1 µg/mL) worked out at 0.927.

`Cc1ccn2cc(C(=O)N(C)C3CCCN(CCCc4ccccc4)C3)nc2c1` (stereo not given): the “bacterial growth OD600” value (polymyxin B 0.75 µg/mL) was 0.741.

`CCOC(=O)C1(Cc2cccc(F)c2)CCN(Cc2c(C)nn(CC)c2C)CC1`: under “polymyxin B 1 µg/mL”, the “bacterial growth OD600” value came to 0.841.

For the molecule `CN(Cc1ccc2nsnc2c1)C(=O)c1cn(CCc2ccccc2)nn1`, the “bacterial growth OD600” value (polymyxin B 1 µg/mL) is 1.09.

`CCC(NC(=O)c1csc2nc(-c3ccc(F)cc3)cn12)c1ccncc1` (stereo not given): the “bacterial growth OD600” value (polymyxin B 1 µg/mL) amounted to 1.02.

For `COc1ccc(OC)c(CN2CCN(Cc3ccc(F)c(F)c3)C(CCO)C2)c1` (stereo not given), the “bacterial growth OD600” value (polymyxin B 1 µg/mL) came out at 0.832.

Regarding `COc1ccc(CN2CCCCCCC2)cc1OCC(O)CN1CCN(C)CC1` (stereo not given), the “bacterial growth OD600” value (polymyxin B 0.75 µg/mL) was 0.879.

With `COc1cccc(Cc2cc(C(=O)NCCC(c3ccccc3)c3ccco3)on2)c1` (stereo not given), the “bacterial growth OD600” value (polymyxin B 0.75 µg/mL) came out at 0.844.

In the case of `CCOC(=O)C1(CCOc2ccccc2)CCCN(Cc2cccc(O)c2)C1` (stereo not given), where the note is “polymyxin B 0.75 µg/mL”, the “bacterial growth OD600” value is 0.763.

Consider `CN1N=C(C(=O)N(C)C2CCCN(Cc3ccccc3F)C2)CCC1=O` (stereo not given), for which the “bacterial growth OD600” value (polymyxin B 1 µg/mL) is 0.908.

As for `CCn1ccnc1CN1CCC(n2nccc2NC(=O)C(OC)c2ccccc2)CC1` (stereo not given), under “polymyxin B 1 µg/mL”, the “bacterial growth OD600” value worked out at 0.939.

On to `CC(C)c1ccc(CN2CCCC3(CCN(c4ncccn4)C3)C2=O)cc1` (stereo not given), for which the “bacterial growth OD600” value (polymyxin B 1 µg/mL) was 0.703.

Take `CC(C)CC(=O)C(=O)N1CCC(C2(c3ccccn3)NC(=O)N(CCc3cccs3)C2=O)CC1` (stereo not given): where the note is “polymyxin B 0.75 µg/mL”, the “bacterial growth OD600” value stood at 0.819.

`CO[C@H]1[C@H](NC(=O)C(C)C)c2ccccc2C12CCN(C(=O)C[C@@H]1C[C@@H](C)NC(=S)N1)CC2`: the “bacterial growth OD600” value (polymyxin B 0.75 µg/mL) is 0.834.

Take `COC(C(=O)N1CCC(C(Cc2ccccc2)N(C)C(=O)c2ccccn2)CC1)c1ccccc1` (stereo not given): the “bacterial growth OD600” value (polymyxin B 0.75 µg/mL) turned out to be 0.859.

For `O=C(NCc1ccco1)C1CC12CCN(Cc1cnc(-c3ccccc3)s1)CC2` (stereo not given), for the setting “polymyxin B 0.75 µg/mL”, the “bacterial growth OD600” value was 1.03.

As for `CCOC(=O)N1CCN(Cc2nc(-c3ccc(OC)cc3OC)oc2C)CC1`, under “polymyxin B 0.75 µg/mL”, the “bacterial growth OD600” value was determined as 0.976.

For the molecule `CC(C)c1nc(CNC(=O)c2cc(Cn3ccnc3C(C)C)[nH]n2)cs1`, the “bacterial growth OD600” value (polymyxin B 1 µg/mL) was determined as 0.92.

On to `CCn1ccnc1CN1CCC2(CCCN(Cc3cccc(C)c3)C2=O)C1` (stereo not given), for which, under “polymyxin B 1 µg/mL”, the “bacterial growth OD600” value was determined as 0.899.

For `COCC1CCCN(C(=O)CCC2(Cc3ccc(OC)c4ccccc34)CCC(=O)N2)C1` (stereo not given), for the setting “polymyxin B 0.75 µg/mL”, the “bacterial growth OD600” value is 0.839.

As for `COc1cc(CNCc2cccnc2N(C)C2CCCCC2)ccc1F`, the “bacterial growth OD600” value (polymyxin B 1 µg/mL) came to 0.904.

As for `COc1cc(F)ccc1CN1CCC(n2nccc2NC(=O)C(C)(C)C)CC1`, the “bacterial growth OD600” value (polymyxin B 0.75 µg/mL) was 0.846.

`Cc1nc(N2CCCC(NCc3ccc(F)cc3F)CC2)nc2ccc(F)cc12` (stereo not given): the “bacterial growth OD600” value (polymyxin B 0.75 µg/mL) came to 0.691.

For the origin of these results see the supplement of paper PMC12889115.
